These results are taken from paper PMC7862700.

Protein sequences, listed by entry. Tags and fused reporters are not part of them. Lines headed by an entry give the natural chain unless they say otherwise; changes in a name come on top.
UniProt Q01892: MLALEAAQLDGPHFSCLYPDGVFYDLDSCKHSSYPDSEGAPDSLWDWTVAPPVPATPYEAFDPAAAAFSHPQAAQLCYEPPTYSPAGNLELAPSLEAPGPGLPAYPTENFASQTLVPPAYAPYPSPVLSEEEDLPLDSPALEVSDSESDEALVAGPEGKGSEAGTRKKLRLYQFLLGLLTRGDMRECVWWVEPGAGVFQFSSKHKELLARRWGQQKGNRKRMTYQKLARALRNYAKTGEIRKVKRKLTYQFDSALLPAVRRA
UniProt P41161: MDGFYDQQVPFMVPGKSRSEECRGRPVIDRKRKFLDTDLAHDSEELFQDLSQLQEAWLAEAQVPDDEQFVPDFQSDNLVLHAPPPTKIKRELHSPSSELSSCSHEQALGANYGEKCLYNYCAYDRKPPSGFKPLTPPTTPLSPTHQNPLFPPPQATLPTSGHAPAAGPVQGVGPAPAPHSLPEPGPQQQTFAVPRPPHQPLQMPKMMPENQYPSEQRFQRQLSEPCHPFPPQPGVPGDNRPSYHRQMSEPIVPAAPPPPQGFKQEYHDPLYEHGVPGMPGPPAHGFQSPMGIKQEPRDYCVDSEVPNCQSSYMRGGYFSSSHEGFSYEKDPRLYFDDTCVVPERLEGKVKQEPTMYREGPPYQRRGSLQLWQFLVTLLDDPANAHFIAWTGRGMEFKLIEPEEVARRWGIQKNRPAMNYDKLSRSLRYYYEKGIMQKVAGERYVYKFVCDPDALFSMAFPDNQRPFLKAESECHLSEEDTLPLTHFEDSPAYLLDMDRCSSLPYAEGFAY
UniProt Q99607: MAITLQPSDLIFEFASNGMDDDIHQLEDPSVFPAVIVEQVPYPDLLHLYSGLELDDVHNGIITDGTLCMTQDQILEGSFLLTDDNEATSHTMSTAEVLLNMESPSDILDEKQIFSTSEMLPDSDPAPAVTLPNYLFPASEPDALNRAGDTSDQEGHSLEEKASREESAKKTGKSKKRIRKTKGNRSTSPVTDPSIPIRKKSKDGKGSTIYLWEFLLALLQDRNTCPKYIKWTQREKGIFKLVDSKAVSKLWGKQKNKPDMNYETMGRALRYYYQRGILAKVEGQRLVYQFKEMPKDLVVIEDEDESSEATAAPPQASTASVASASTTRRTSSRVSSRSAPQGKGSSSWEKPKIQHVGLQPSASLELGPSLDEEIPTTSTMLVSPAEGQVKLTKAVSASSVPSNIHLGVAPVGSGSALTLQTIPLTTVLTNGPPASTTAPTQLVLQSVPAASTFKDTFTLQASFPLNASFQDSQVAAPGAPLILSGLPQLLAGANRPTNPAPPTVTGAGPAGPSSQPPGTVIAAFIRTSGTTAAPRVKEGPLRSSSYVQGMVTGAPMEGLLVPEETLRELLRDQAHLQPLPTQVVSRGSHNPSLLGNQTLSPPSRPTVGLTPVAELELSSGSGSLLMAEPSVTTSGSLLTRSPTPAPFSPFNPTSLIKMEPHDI

Holding throughout (experiment): DAPPL (digital affinity profiling via proximity ligation, sequencing)
Holding throughout (conditions): 10 mM Tris-HCl pH 7.5, 50 mM NaCl, 1 mM DTT, 4% glycerol, room temperature, 30 min; GST-TFs on glutathione beads, 16-mer random dsDNA library, 0.1% …; high values mean tight binding; double strand, one strand shown; scale: fold enrichment (6-mer frequency, TF over GST control)

In assay [1] the target is T1, FLI1 (UniProt Q01543).
T1 sequence: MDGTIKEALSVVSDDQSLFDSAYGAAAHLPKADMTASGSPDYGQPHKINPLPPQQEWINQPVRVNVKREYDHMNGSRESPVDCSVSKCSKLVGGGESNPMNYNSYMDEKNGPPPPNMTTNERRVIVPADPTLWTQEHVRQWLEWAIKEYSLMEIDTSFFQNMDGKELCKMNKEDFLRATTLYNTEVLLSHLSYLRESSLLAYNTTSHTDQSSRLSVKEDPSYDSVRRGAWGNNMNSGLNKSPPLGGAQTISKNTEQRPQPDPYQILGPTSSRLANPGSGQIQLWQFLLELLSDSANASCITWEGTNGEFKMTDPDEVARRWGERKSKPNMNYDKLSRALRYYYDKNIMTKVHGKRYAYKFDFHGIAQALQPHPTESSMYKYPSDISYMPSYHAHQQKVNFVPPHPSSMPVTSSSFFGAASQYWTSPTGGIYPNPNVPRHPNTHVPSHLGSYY

In assay [2] the target is SPIB (UniProt Q01892).
In assay [3] the target is ETV5 (UniProt P41161).
The target in assay [4] is ELF4 (UniProt Q99607).
Assay [5] addresses T2, ETV3L (UniProt Q6ZN32).
T2 sequence: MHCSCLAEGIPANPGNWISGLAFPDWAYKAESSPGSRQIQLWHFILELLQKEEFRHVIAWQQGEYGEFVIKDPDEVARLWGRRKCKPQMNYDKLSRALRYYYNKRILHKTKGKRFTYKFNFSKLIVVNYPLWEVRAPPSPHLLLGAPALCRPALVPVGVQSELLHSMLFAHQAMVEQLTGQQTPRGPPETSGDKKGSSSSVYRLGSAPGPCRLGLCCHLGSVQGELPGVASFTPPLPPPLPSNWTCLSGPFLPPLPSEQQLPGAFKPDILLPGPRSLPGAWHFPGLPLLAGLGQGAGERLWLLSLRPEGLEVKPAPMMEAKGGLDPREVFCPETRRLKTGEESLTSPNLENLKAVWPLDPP

Assay [6] addresses T3, EHF (UniProt Q9NZC4).
T3 sequence: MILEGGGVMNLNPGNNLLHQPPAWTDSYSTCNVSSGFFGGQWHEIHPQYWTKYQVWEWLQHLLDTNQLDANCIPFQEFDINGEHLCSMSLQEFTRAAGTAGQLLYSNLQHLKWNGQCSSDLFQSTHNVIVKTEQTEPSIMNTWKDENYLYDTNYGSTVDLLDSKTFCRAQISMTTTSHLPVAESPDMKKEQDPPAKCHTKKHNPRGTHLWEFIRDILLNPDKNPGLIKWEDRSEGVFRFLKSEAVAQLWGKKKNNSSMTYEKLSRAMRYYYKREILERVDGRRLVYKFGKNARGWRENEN

The target of assay [7] is T4, ETV2 (UniProt O00321).
T4 sequence: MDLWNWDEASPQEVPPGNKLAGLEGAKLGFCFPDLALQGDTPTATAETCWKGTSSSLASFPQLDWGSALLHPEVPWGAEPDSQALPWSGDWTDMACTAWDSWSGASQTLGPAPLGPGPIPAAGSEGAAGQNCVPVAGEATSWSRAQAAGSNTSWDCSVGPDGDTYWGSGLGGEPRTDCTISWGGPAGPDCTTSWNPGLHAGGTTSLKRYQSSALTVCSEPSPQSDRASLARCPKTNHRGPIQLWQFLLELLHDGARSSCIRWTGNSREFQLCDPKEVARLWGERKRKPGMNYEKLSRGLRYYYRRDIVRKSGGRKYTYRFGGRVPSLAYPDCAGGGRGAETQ

This is a selection; strong and weak results do not stand in their true shares. For part of these data: At the low end of the ranking, values are background and their order means little.

ATCACG: the binding signal in assay [1] amounted to 0.97; in assay [2], 0.925; in assay [3] it was 0.998; in assay [4], 0.96; in assay [5], 0.996.

Take AGCCAC: the binding signal in assay [1] worked out at 0.974; in assay [2], 0.944; in assay [3] it was 1.01; in assay [4], 0.984; in assay [5], 0.956.

CGCAAT: the binding signal came to 0.885 in assay [1]; 0.964 in assay [6]; 0.897 in assay [2]; 0.961 in assay [3]; 0.903 in assay [4]; 0.91 in assay [5].

As for TAATTC, the binding signal in assay [1] stood at 1.5; in assay [2] it was 1.51; in assay [3] it was 1.44; in assay [4], 1.48.

Consider AGGCTA, for which the binding signal turned out to be 0.922 in assay [1]; 0.883 in assay [6]; 0.906 in assay [2]; 0.972 in assay [3]; 0.901 in assay [4]; 0.851 in assay [5].

For ATCAAG, the binding signal in assay [1] was determined as 0.932; in assay [6], 0.998; in assay [2], 0.896; in assay [3], 0.945; in assay [4] it was 0.934.

Take CGACAA: the binding signal was 1.17 in assay [1], 1.24 in assay [6], 1.24 in assay [3] and 1.18 in assay [4].

Take GTGCCT: the binding signal in assay [1] was determined as 0.949; in assay [6], 0.914; in assay [3], 1.07; in assay [4], 0.993.

Turning to GAATGG, the binding signal in assay [1] stood at 0.942; in assay [2], 1.06; in assay [3] it was 0.911; in assay [4], 0.94.

Turning to GCAAAG, the binding signal is 0.907 in assay [1]; 0.936 in assay [6]; 0.941 in assay [2]; 0.874 in assay [3]; 0.889 in assay [4]; 0.889 in assay [5].

For CGCGAA, the binding signal was 0.958 in assay [1]; 0.986 in assay [6]; 0.96 in assay [2]; 0.968 in assay [3]; 0.986 in assay [4]; 0.994 in assay [5].

In the case of AGTATA, the binding signal is 0.972 in assay [1]; 0.99 in assay [6]; 0.972 in assay [2]; 0.976 in assay [3]; 0.998 in assay [4].

As to CAGTAT, the binding signal in assay [1] stood at 0.889; in assay [6], 0.959; in assay [2], 0.981; in assay [3] it was 0.936; in assay [4], 0.987.

AGAATA: the binding signal amounted to 0.983 in assay [1]; 0.938 in assay [6]; 0.972 in assay [2]; 0.993 in assay [3]; 1.06 in assay [4].

Turning to GGTTCT, the binding signal in assay [1] turned out to be 1.07; in assay [6] it was 0.94; in assay [2] it was 1.05; in assay [3] it was 0.981; in assay [4], 0.993.

With CGGACC, the binding signal in assay [1] came to 0.799; in assay [6], 0.791; in assay [2] it was 0.781; in assay [3] it was 0.838; in assay [4] it was 0.804; in assay [5], 0.867.

Regarding GCCTGG, the binding signal in assay [1] is 0.98; in assay [6], 0.966; in assay [3], 0.948; in assay [4], 0.884.

As for ACGCGA, the binding signal in assay [1] is 0.89; in assay [6], 0.832; in assay [2] it was 0.818; in assay [3], 0.821; in assay [4], 0.867; in assay [5], 0.903.

As for TCAGTA, the binding signal was 0.908 in assay [1]; 0.979 in assay [6]; 0.888 in assay [2]; 0.972 in assay [3]; 0.994 in assay [4]; 0.979 in assay [5].

Regarding AGGTCC, the binding signal in assay [1] is 0.995; in assay [2], 0.957; in assay [3], 0.948; in assay [4], 0.907; in assay [5], 1.03.

In the case of CTTCTT, the binding signal in assay [1] turned out to be 1.44; in assay [3], 1.59; in assay [7], 1.53.
